Some of these results come from one statement about several compounds together.
Molecular target: T1, telomerase (Homo sapiens, UniProt O14746)
T1 construct: expressed in transfected cells; host or cells: 293 cells over-expressing hTERT
Test: Bio-Tel FlashPlate telomerase activity assay
Type: biochemical

Protein sequences, listed by entry. Tags and fused reporters are not part of them. Lines headed by an entry give the natural chain unless they say otherwise; changes in a name come on top.
UniProt O14746: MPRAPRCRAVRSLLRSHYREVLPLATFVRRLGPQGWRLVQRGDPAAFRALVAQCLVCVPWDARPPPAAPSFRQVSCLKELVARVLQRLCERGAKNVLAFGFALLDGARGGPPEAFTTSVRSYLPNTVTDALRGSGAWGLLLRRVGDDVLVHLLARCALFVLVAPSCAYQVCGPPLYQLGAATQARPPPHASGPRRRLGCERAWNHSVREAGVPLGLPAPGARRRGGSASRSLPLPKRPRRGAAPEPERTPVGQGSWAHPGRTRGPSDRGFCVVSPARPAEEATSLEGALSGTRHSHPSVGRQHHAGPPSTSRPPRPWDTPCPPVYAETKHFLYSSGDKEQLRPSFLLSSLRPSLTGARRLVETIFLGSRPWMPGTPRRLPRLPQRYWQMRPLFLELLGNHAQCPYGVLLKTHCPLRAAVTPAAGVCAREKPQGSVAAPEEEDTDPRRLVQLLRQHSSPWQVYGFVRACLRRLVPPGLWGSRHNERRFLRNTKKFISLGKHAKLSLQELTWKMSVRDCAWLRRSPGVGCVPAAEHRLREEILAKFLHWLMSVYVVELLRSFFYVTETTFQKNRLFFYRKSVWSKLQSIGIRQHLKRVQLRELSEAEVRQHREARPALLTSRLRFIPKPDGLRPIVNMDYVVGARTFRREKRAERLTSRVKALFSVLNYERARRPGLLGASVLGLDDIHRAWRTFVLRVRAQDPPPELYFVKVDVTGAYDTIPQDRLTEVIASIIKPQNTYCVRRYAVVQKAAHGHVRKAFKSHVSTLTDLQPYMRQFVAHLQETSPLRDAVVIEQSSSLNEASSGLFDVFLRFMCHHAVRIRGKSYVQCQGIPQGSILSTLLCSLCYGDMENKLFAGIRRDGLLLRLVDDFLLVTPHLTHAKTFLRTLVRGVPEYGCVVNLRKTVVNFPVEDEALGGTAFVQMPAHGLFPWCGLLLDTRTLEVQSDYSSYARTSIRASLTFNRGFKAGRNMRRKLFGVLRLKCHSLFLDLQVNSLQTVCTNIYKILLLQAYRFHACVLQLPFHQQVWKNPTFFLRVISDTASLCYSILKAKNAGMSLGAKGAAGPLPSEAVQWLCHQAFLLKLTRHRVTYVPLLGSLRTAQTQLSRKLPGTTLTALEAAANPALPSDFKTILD

With `O=C(Nc1ccc(Cl)c(Cl)c1)Oc1ccc(/C=C2\SC(=O)NC2=O)cc1` [Example 11, 5-(4-(N-3,4-Dichlorophenylcarbamoyloxy)benzylidene)thiazolidine-2,4-dione] the IC50 was < 100 µM.
